No constants are given. Whether binding was seen depends on the method and setting. Some binding calls cover weakened binding; strength is not graded here.
Assays:
[1] = molecular target: T1, α2M activated by methylamine (α2M*) (human) (UniProt P01023); assay: α2M*-Sepharose 4B affinity chromatography of Triton X-100 extracts of bovine liver plasma membranes, 4 mM Ca2+, eluted with 10 mM EDTA
T1 sequence (activated by methylamine; 125I-labelled where used as tracer, looked up): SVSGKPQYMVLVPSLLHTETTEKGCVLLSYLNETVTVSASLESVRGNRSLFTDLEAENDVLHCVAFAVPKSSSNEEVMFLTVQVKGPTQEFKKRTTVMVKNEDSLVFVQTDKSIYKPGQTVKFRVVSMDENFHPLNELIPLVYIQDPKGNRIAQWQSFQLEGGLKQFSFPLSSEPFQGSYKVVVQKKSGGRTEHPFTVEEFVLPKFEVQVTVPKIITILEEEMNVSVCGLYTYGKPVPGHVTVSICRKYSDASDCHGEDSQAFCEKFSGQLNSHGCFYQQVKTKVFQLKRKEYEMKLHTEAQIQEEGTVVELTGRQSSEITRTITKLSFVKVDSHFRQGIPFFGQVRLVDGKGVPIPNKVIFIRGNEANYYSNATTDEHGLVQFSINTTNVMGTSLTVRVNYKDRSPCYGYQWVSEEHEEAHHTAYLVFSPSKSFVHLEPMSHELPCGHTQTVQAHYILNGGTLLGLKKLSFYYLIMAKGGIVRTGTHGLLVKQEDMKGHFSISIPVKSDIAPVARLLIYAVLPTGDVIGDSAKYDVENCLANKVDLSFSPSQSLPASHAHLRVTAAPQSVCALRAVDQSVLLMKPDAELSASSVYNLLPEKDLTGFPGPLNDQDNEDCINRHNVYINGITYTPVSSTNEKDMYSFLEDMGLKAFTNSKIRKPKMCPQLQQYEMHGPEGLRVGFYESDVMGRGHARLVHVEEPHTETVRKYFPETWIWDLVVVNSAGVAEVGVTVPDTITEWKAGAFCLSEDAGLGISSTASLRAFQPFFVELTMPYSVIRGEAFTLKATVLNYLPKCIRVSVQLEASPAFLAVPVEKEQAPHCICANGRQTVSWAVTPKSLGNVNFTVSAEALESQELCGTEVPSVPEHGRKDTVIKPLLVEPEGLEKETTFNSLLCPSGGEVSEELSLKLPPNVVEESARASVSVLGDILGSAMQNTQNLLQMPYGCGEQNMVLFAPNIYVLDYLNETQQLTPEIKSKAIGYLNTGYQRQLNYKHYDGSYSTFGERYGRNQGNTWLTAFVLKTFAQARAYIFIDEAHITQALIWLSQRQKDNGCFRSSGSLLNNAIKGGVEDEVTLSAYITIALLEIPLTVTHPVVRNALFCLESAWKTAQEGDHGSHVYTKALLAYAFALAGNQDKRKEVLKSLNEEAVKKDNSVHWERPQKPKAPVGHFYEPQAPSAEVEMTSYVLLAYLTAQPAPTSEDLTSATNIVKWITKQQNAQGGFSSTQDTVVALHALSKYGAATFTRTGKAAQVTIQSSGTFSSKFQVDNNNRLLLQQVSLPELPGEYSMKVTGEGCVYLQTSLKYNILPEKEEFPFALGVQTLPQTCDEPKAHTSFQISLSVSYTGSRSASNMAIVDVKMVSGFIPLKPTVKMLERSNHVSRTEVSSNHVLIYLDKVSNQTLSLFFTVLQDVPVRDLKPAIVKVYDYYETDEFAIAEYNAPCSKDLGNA

Protein sequences, listed by entry. Tags and fused reporters are not part of them. Residues count along the entry.
UniProt Q91ZX7, residues 20-4545: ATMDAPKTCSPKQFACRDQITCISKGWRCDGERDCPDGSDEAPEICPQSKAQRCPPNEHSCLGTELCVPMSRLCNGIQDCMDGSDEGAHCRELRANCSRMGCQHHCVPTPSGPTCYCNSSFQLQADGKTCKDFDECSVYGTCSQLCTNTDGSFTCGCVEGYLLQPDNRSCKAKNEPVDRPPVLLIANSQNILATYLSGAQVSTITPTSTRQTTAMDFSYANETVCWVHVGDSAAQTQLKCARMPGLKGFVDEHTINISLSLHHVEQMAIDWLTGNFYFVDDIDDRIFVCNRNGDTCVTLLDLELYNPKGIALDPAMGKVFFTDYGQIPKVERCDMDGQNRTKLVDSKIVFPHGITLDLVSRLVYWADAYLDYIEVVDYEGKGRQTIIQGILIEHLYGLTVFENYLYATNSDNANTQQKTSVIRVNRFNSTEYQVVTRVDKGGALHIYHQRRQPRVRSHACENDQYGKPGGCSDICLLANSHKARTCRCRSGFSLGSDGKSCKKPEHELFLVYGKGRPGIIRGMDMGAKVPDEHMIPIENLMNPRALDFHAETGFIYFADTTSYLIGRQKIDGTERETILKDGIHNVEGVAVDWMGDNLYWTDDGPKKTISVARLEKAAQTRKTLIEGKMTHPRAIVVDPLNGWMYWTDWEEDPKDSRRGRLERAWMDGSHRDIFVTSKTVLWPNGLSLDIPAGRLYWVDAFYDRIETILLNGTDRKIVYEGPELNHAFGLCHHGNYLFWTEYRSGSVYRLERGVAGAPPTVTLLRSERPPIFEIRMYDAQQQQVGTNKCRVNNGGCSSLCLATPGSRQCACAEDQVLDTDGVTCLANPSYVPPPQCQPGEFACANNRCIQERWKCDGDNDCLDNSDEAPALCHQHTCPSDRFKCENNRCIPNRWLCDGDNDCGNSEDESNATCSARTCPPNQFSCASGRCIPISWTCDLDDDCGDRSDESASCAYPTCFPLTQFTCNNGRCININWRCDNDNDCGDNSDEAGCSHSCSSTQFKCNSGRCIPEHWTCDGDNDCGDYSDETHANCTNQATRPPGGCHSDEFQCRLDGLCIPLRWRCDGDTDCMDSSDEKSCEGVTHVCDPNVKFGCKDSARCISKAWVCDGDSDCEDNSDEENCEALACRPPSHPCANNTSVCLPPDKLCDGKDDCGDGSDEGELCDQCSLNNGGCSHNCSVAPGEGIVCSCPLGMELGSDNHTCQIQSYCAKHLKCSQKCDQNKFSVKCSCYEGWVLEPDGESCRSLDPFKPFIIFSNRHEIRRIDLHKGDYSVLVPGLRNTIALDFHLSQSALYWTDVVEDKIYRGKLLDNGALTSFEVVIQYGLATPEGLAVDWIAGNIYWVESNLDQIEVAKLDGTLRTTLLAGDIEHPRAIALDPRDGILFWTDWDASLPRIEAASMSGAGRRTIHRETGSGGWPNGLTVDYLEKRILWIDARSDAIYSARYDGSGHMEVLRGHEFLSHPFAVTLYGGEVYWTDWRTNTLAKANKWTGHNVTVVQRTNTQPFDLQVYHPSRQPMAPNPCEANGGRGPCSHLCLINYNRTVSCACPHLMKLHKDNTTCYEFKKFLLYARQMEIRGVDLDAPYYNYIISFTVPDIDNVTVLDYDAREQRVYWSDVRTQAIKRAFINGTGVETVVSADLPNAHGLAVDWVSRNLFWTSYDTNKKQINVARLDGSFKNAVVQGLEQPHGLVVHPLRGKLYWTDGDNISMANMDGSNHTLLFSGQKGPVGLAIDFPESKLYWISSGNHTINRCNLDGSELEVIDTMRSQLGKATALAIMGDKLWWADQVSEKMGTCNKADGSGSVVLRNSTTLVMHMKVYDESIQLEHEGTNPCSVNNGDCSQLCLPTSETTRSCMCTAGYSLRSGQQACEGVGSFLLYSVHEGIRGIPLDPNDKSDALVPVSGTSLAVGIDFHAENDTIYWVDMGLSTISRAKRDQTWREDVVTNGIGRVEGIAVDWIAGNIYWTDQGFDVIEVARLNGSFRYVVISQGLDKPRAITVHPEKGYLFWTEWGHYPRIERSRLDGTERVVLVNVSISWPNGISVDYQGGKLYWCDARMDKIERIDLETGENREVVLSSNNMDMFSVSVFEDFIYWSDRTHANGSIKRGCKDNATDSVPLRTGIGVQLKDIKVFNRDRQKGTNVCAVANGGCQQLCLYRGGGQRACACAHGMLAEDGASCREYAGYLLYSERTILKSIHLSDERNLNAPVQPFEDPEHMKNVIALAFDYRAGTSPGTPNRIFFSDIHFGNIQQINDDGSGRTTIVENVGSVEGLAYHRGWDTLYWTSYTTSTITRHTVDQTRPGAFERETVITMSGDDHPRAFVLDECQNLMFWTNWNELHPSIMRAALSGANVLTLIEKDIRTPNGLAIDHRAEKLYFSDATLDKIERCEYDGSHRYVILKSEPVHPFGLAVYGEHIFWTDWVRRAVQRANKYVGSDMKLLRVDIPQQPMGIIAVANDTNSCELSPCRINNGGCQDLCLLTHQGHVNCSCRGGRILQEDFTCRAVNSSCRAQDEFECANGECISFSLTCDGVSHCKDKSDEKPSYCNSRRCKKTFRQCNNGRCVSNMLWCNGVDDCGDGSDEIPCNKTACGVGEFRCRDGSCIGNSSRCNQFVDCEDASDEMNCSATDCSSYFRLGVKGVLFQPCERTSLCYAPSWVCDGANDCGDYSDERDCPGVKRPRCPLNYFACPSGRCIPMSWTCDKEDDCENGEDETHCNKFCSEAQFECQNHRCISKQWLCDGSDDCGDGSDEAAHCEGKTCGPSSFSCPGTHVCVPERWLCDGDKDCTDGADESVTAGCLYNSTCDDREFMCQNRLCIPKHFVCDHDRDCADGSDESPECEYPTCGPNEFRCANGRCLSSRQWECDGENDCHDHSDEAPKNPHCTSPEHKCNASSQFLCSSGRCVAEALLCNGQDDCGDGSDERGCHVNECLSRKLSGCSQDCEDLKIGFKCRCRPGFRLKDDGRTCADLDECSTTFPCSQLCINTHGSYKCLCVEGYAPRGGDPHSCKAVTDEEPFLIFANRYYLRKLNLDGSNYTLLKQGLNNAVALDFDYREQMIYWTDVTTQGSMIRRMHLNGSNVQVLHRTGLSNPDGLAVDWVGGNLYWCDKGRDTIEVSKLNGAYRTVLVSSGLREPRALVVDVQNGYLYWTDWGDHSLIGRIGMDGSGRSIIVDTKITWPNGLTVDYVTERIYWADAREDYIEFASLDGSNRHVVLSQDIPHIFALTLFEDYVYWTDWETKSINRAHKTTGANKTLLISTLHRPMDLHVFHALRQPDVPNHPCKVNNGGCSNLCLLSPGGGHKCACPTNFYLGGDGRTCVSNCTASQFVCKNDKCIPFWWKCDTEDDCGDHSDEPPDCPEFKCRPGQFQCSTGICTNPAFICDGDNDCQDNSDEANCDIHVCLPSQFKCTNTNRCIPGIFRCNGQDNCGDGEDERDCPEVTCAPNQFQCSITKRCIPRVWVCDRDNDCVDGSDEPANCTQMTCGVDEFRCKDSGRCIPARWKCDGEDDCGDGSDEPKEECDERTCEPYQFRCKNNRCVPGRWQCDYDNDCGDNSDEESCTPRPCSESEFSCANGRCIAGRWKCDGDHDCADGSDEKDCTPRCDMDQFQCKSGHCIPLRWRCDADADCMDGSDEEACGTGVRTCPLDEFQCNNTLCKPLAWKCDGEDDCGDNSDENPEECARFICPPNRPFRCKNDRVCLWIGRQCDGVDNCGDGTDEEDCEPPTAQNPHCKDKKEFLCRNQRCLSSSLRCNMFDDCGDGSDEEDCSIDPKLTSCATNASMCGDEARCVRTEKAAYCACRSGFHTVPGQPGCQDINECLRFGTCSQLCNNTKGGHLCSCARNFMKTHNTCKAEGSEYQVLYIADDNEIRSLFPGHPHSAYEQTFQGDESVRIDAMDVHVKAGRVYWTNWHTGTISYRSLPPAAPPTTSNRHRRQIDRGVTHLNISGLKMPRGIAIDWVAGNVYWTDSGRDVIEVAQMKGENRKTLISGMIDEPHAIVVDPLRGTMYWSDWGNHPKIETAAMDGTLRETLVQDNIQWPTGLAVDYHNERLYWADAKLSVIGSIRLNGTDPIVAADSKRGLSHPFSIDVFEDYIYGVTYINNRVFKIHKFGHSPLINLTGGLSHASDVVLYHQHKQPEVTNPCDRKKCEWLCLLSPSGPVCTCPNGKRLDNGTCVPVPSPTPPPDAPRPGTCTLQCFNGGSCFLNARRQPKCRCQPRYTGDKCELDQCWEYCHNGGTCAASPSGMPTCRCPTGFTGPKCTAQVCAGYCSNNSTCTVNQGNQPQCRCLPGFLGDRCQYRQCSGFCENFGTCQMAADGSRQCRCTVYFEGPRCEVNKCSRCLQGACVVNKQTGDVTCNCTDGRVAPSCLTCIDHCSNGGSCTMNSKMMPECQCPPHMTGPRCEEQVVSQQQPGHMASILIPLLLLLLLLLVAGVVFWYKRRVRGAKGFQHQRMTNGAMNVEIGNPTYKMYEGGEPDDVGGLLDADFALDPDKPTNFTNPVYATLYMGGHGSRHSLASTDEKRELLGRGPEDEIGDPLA

[2] = molecular target: T1, α2M activated by methylamine (α2M*) (human); assay: α2M*-affinity column chromatography at acidic pH
[3] = molecular target: T1, α2M activated by methylamine (α2M*) (human); assay: α2M*-Sepharose affinity chromatography at pH 6 and 5
[4] = molecular target: LRP-1 in mouse embryonic fibroblasts (MEF cells) (mouse) (UniProt Q91ZX7); assay: specific binding of 2 nM 125I-α2M* to MEF cells at pH 7.4, 0 C
[5] = molecular target: LRP-1 in mouse embryonic fibroblasts (MEF cells) (mouse) (UniProt Q91ZX7); assay: cell surface binding of 125I-α2M* to MEF cells at pH 7.4, 0 C

B1: bovine annexin VI (~68 kDa protein purified from bovine liver plasma membranes) (protein, UniProt P79134 2-673, looked up)
chain: AKPAQGAKYRGSIRDFPDFNPSQDAETLYNAMKGFGSDKEAILELITSRSNRQRQEICQNYKSLYGKDLIADLKYELTGKFERLIVGLMRPPAYADAKEIKDAISGIGTDEKCLIEILASRTNEQIHQLVAAYKDAYERDLEADITGDTSGHFRKMLVVLLQGTREEDDVVSEDLVQQDVQDLYEAGELKWGTDEAQFIYILGNRSKQHLRLVFDEYLKTTGKPIEASIRGELSGDFEKLMLAVVKCIRSTAEYFAERLFKAMKGLGTRDNTLIRIMVSRSELDMLDIREIFRTKYEKSLYSMIKNDTSGEYKKTLLKLCGGDDDAAGQFFPEAAQVAYQMWELSAVARVELKGTVRPAGDFNPDADAKALRKAMKGLGTDEDTIIDIIAHRSNAQRQQIRQTFKSHFGRDLMADLKSELSGDLARLILGLMMPPAHYDAKQLKKAMEGAGTDEKALIEILATRTNAEIQAINKAYKEDYHKSLEDALSSDTSGHFKRILISLATGNREEGGEDRERAREDAQVAAEILEIADTTSGDKSSLETRFMMILCTRSYPHLRRVFQEFIKMTNYDVEHTIKKEMSGDVRDVFVAIVQSVKNKPLFFADKLYKSMKGAGTDEKTLTRIMVSRSEIDLLNIRREFIEKYDKSLHQAIEGDTSGHFLKALLAICGGED
For B1, the binding [1] was “binds”, the binding [2] was “binds” and the binding [3] was “binds”.

B2: α2M activated by methylamine (α2M*) (ligand, human, UniProt P01023 24-1474, looked up)
chain: T1 sequence (activated by methylamine; 125I-labelled where used as tracer, looked up)
modifications: activated by methylamine; 125I-labelled where used as tracer
For B2, the binding [4] was “binds” and the binding [5] was “binds”.

Reference: patent publication US20050250692A1
